{"source": "patent US8568802B2", "about": "“Process for producing enriched fractions of tetrahydroxycurcumin and tetrahydrotetrahydroxy-curcumin from the extracts of Curcuma longa” (Laila Impex, priority 2005, dated 2013)", "system": "5-Lipoxygenase", "experiment": "5-Lipoxygenase inhibitory activity (colorimetric, ferric xylenol orange)", "assay_type": "biochemical", "details": "concentration 80 μg/mL", "procedure": "5-Lipoxygenase activity: The enriched fraction of tetrahydroxycurcumin mixture, pure TC and tetrahydrotetrahydroxycurcumin fraction were screened for their 5-Lipoxygenase inhibitory potential using colorimetric method. The assay mixture contained 50 mM phosphate buffer pH 6.3, 5-Lipoxygenase, various concentrations of test substances in dimethyl sulphoxide and linoleic acid in a total volume of 0.5 mL, after 5 min incubation of above reaction mixture, 0.5 mL ferric xylenol orange reagent was added and OD was measured after two minutes at 585 nm using spectrophotometer. […] Percent inhibition was calculated by comparing absorbance of test solution with that of control.", "note": "For at least one compound, name, drawing or mass did not settle the structure.", "data": [{"compound": "O=C(CCc1ccc(O)c(O)c1)CC(=O)CCc1ccc(O)c(O)c1", "note": "[tetrahydrotetrahydroxycurcumin]", "values": [{"measurement": "% of inhibition (5-Lipoxygenase)", "result": 0.2, "unit": "%"}]}]}
